“And” between values parts separate entries of the source, which are not always exact repeats. Equal values may be shown once. Where a name gives a salt, the structure may show the parent alone. ± gives the standard deviation of the averaged measurements. Some of the results follow. This is a noisy data set.

This test has as its system Salmonella enterica serovar Typhimurium ST313 D23580. Kind of test: normalized bacterial growth (OD600 20 h minus 0 h, interquartile-mean normalized) (fraction of plate interquartile mean); higher = more bacterial growth (less inhibition). As to conditions: LPM (pH 5.8, low phosphate, low Mg2+), concentration: 10 µM, temperature: 37 °C.
`COc1ccc2c(c1)OCC(Cc1ccc(OC)c(O)c1)C2=O` (stereo unspecified) gave a normalized bacterial growth of 0.531. Compound `O=C(O)c1cn(C2CC2)c2cc(N3CCNCC3)c(F)cc2c1=O` [Ciprofloxacin hydrochloride] registered a normalized bacterial growth of 0.0699. As to `O=C(O)c1cn(C2CC2)c2cc(N3CCNCC3)c(F)cc2c1=O`, the normalized bacterial growth was determined as 0.0226. To `CCCn1c(=O)[nH]c(=O)c2[nH]cnc21` [3-n-Propylxanthine] belongs 1.09; to `COc1ccc(/C=C/C(=O)c2ccc(O)cc2O)cc1`, 1.07. Take `OC[C@H]1O[C@@H](n2cnc3c(NC4CCCC4)ncnc32)[C@H](O)[C@@H]1O` [N6-Cyclopentyladenosine]: the normalized bacterial growth came to 1.42.

`C[N+](C)(C)CC=O` [Betaine aldehyde chloride]: the normalized bacterial growth was 1.16. Next, `Cc1nn(-c2ccccc2)c(C)c1C=NN1CCN(Cc2ccccc2)CC1`: 0.629; `CCCCCCCCCCCCCC[C@@H](O)[C@@H](O)[C@@H](N)CO`: 1.62. As for `COc1c(CC(=O)c2cc3c(cc2O)OC(C)(C)C(O)C3)ccc2c1C=CC(C)(C)O2` (stereo unspecified), the normalized bacterial growth is 0.814. To `Fc1ccc(CN(C2=NCCN2)c2c(Cl)cccc2Cl)cc1` [IMID-4F hydrochloride] belongs 1.14. Next, `Clc1ccc(C(Cn2ccnc2)OCc2ccsc2Cl)c(Cl)c1` (stereo unspecified): 0.617; `O=C(O)CNC(=O)C(CS)Cc1ccccc1` (racemic) [DL-Thiorphan]: 1.13. Next, `CCCC1C(=O)N2C(N(C)C)=Nc3ccc(C)cc3N2C1=O` (stereo unspecified) [Azapropazone]: 1.34; `c1cnc(N2CCN(Cc3ccc4c(c3)OCO4)CC2)nc1` [Piribedil hydrochloride]: 1.14. On to `c1cnc(N2CCN(Cc3ccc4c(c3)OCO4)CC2)nc1` [Piribedil maleate], for which the normalized bacterial growth was 1.21.

For `C[C@](N)(Cc1ccc(O)c(O)c1)C(=O)O` [L-alpha-Methyl DOPA], the normalized bacterial growth stood at 0.954.

Consider `C=CC(C1=CC(=O)C(OC)=CC1=O)c1ccccc1` (stereo unspecified), for which the normalized bacterial growth is 0.71. Compound `C[C@H]1c2cccc(O)c2C(=O)C2=C(O)[C@]3(O)C(=O)C(C(N)=O)=C(O)[C@@H](N(C)C)[C@@H]3[C@@H](O)[C@@H]21` [Doxycycline hydrochloride] had a normalized bacterial growth of 0.26. To `C[C@H]1c2cccc(O)c2C(=O)C2=C(O)[C@]3(O)C(=O)C(C(N)=O)=C(O)[C@@H](N(C)C)[C@@H]3[C@@H](O)[C@@H]21` [Doxycycline hyclate] belongs 0.0156; to `C[C@H]1[C@H](C)CC[C@]2(C(=O)O[C@@H]3O[C@H](CO[C@@H]4O[C@H](CO)[C@@H](O[C@@H]5O[C@H](C)[C@H](O)[C@@H](O)[C@H]5O)[C@H](O)[C@H]4O)[C@@H](O)[C@H](O)[C@H]3O)CC[C@]3(C)C(=CC[C@@H]4[C@@]5(C)C[C@@H](O)[C@H](O)[C@@](C)(CO)[C@@H]5CC[C@]43C)[C@H]12` [Asiaticoside], 1.3. The compound `Cc1c(O)c(=O)n(-c2ccccc2)n1C` ["Antipyrine, 4-hydroxy"] came in with a normalized bacterial growth of 0.876. Next, `CC=CC1=C(C(=O)O)N2C(=O)[C@@H](NC(=O)[C@H](N)c3ccc(O)cc3)[C@H]2SC1`: 1.1; `COC(=O)c1c(C)cc(OC)cc1O`: 1.17.

`NC(=O)CC[C@H](N)C(=O)O` [L-Glutamine] had a normalized bacterial growth of 1.15. The compound `O=C1c2ccccc2C(=O)C1c1ccc(Br)cc1` had a normalized bacterial growth of 1.29.

In turn, `Cc1cc2c(s1)Nc1ccccc1N=C2N1CCN(C)CC1` returned a normalized bacterial growth of 1.46. As to `CC1(C)C(O[C@@H]2OC[C@@H](O)[C@H](O)[C@H]2O)CC[C@]23CC24CC[C@]2(C)[C@@H]([C@@]5(C)CC[C@@H](C(C)(C)O)O5)[C@H](O)C[C@@]2(C)C4C[C@@H](O[C@@H]2O[C@H](CO)[C@@H](O)[C@H](O)[C@H]2O)C13` (stereo partly specified), the normalized bacterial growth came to 1.21. As to `Oc1cccc(O)c1`, the normalized bacterial growth was determined as 0.783. Next, `CC(=O)N(c1onc(C)c1C)S(=O)(=O)c1ccc(N)cc1`: 0.981. To `Cc1cc(O)cc(C)c1Cl` belongs 0.782; to `C=C1CCC(C2CC(=O)OC2=O)C(=O)CCC2C1CC2(C)C` (stereo unspecified), 1.22.

With `O=C(O)c1cc(=O)c2c(Cl)cc(Cl)cc2[nH]1` ["5,7-Dichlorokynurenic acid"], the normalized bacterial growth came to 0.976. The compound `O=Nc1ccc2oc(=O)ccc2c1` ["6-Nitroso-1,2-benzopyrone"] showed a normalized bacterial growth of 1.01. `CC(C)(C)c1ccc(S(=O)(=O)/C=C/C#N)cc1` returned a normalized bacterial growth of 0.717.

Turning to `CC(N)CCCC(C)(C)O` (stereo unspecified), the normalized bacterial growth amounted to 0.992. With `CN1CCCN=C1/C=C/c1cccc(O)c1` [Oxantel pamoate], the normalized bacterial growth stood at 0.623. To `CN1CCCN=C1/C=C/c1cccc(O)c1` belongs 0.859. Take `O=C(O)c1cc2cc(Cc3cccnc3)ccc2o1` [Furegrelate sodium]: the normalized bacterial growth was determined as 1.06. Next, `CC(=O)O[C@@H]1C=C[C@]2(C)C(C[C@@H](OC(C)=O)[C@]3(C)C4=CC(=O)O[C@H](c5ccoc5)[C@@]4(C)CCC23)C1(C)C` (stereo partly specified): 0.448.

The compound `CC1CCN=C(N)S1` (stereo unspecified) [()-AMT hydrochloride] showed a normalized bacterial growth of 0.851.

The compound `N#C/C(=C\c1ccc(O)c(O)c1)C(=O)NCCCc1ccccc1` [Tyrphostin AG 555] returned a normalized bacterial growth of 1.23. Next, `C/C(=C\C(=O)OCCCCCCCCC(=O)O)C[C@@H]1OC[C@H](C[C@@H]2O[C@H]2[C@@H](C)[C@H](C)O)[C@@H](O)[C@H]1O`: 0.0812. To `O=C(O)c1cc(N(Cc2ccccc2O)Cc2cc(O)ccc2O)ccc1O` belongs 1.19; to `N[C@@H](CSCSC[C@H](N)C(=O)O)C(=O)O`, 1.16. Next, `c1ccc(C2CN3CCSC3=N2)cc1` (single isomer, unassigned; (-)) [(-)-Tetramisole hydrochloride]: 1.2; `CN/C(=N\CCSCc1nc[nH]c1C)NC#N`: 1.26; `CN/C(=N\CCSCc1nc[nH]c1C)NC#N` [Cimetidine]: 0.98 ± 0.12. The compound `CCc1cccc(CC)c1NC(=O)CN(CC(=O)O)CC(=O)O` [Etifenin] showed a normalized bacterial growth of 1.18. To `COc1cc2ncnc(Nc3cccc(Cl)c3)c2cc1OC` [Tyrphostin AG 1478] belongs 0.921; to `CC(=O)Oc1cc(-c2coc3cc(OC(C)=O)c(OC(C)=O)c(OC(C)=O)c3c2=O)cc(OC(C)=O)c1OC(C)=O`, 0.773. In the case of `Nc1ncnc2c1ncn2C1OC(COP(=O)(O)O)C(O)C1O` (stereo unspecified) [Adenosine 5'-monophosphate monohydrate], the normalized bacterial growth is 1.28.

Regarding `CCOC(=O)c1cnc2c(cnn2CC)c1NN=C(C)C` [Etazolate hydrochloride], the normalized bacterial growth is 0.963.

Take `CN1CCCN(C(c2ccccc2)c2ccc(Cl)cc2)CC1` (stereo unspecified) [Homochlorcyclizine dihydrochloride]: the normalized bacterial growth was determined as 0.939. For the compound `C[C@@H]1C[C@H]2[C@@H]3CCC4=CC(=O)C=C[C@]4(C)[C@@]3(Cl)[C@@H](O)C[C@]2(C)[C@@]1(OC(=O)c1ccco1)C(=O)CCl` [Mometasone furoate], the normalized bacterial growth turned out to be 0.862.

`c1coc(CNc2ncnc3[nH]cnc23)c1`: the normalized bacterial growth worked out at 1.05 ± 0.18. Next, `CCOc1ccc2nc(S(N)(=O)=O)sc2c1`: 1.11; `Oc1ccc(-c2nc(-c3ccc(F)cc3)c(-c3ccncc3)[nH]2)cc1`: 0.941; `COc1ccc([C@@H](C)C(=O)c2ccc(O)cc2O)cc1`: 1.15.

The compound `CC1(C)S[C@@H]2[C@H](NC(=O)[C@H](N)c3ccccc3)C(=O)N2[C@H]1C(=O)O` had a normalized bacterial growth of 1.05. `CC1(C)S[C@@H]2[C@H](NC(=O)[C@H](N)c3ccccc3)C(=O)N2[C@H]1C(=O)O` [Ampicillin trihydrate]: the normalized bacterial growth came out at 0.974. Next, `C=C[C@H]1CN2CC[C@H]1C[C@H]2[C@H](O)c1ccnc2ccc(OC)cc12`: 0.894 and 0.957; `C=C[C@H]1CN2CC[C@H]1C[C@H]2[C@H](O)c1ccnc2ccc(OC)cc12` [Quinine sulfate]: 1.34. To `O=C(/C=C/c1ccccc1)c1ccc(O[C@@H]2O[C@H](CO)[C@@H](O)[C@H](O)[C@H]2O)cc1O` belongs 1.1.

With `O=c1n(CCCN2CCN(c3cccc(Cl)c3)CC2)nc2ccccn12` [Trazodone hydrochloride], the normalized bacterial growth amounted to 0.706. To `CC1/C(=N/O)C[C@@H]2C[C@H]1C2(C)C` (stereo partly specified) belongs 0.985; to `COc1ccc2cc([C@H](C)C(=O)O)ccc2c1` [Naproxen], 1.22.

Compound `COc1ccc2cc([C@H](C)C(=O)O)ccc2c1` [(-)-Naproxen sodium] registered a normalized bacterial growth of 0.978.

`Nc1cc(N2CCCCC2)nc(N)[n+]1[O-]` [Minoxidil] registered a normalized bacterial growth of 1.17 ± 0.033. `C[C@@]12C=Cc3occc3[C@H]1CC[C@@]13C[C@@H](CC[C@H]12)[C@@](O)(CO)C3` gave a normalized bacterial growth of 0.989. The compound `Nc1ncnc2c1ncn2[C@@H]1O[C@H](COP(=O)(O)OP(=O)(O)OP(=O)(O)OP(=O)(O)OC[C@@H]2O[C@H](n3cnc4c(N)ncnc43)C(O)[C@@H]2O)[C@H](O)C1O` (stereo partly specified) ["P1,P4-Di(adenosine-5')tetraphosphate triammonium"] gave a normalized bacterial growth of 0.934.

In the case of `CC1=C(/C=C/C(C)=C/C=C/C(C)=C/CO)C(C)(C)CCC1`, the normalized bacterial growth stood at 0.94. `COc1ccccc1N1CCN(CCN(C(=O)c2ccc(I)cc2)c2ccccn2)CC1` [p-MPPI hydrochloride] displayed a normalized bacterial growth of 0.738. Next, `O=C(O)c1ccccc1OP(=O)(O)O`: 1.27; `COC(=O)c1c(C)cc(OC(=O)c2c(C)cc(O)c(C=O)c2O)c(C)c1O`: 0.915. `OC1(c2ccc(Cl)cc2)CCN(Cc2c[nH]c3ccccc23)CC1` had a normalized bacterial growth of 0.841.

In turn, `C/C=C(/C(=C/C)c1ccc(O)cc1)c1ccc(O)cc1` came in with a normalized bacterial growth of 1.15.

Regarding `Cc1ncc([N+](=O)[O-])n1CC(C)O` (stereo unspecified), the normalized bacterial growth is 1.14.

As for `Cc1[nH]c(=O)c(C#N)cc1-c1ccc2nccn2c1` [Olprinone hydrochloride], the normalized bacterial growth was 1.09.

Take `CC(=O)O[C@H]1C(=O)[C@@]2(C)[C@H]([C@H](OC(=O)c3ccccc3)[C@]3(O)C[C@H](OC(=O)[C@H](O)[C@@H](NC(=O)c4ccccc4)c4ccccc4)C(C)=C1C3(C)C)[C@]1(OC(C)=O)CO[C@@H]1C[C@@H]2O`: the normalized bacterial growth stood at 0.766. Next, `CC(=O)O[C@H]1C(=O)[C@@]2(C)[C@H]([C@H](OC(=O)c3ccccc3)[C@]3(O)C[C@H](OC(=O)[C@H](O)[C@@H](NC(=O)c4ccccc4)c4ccccc4)C(C)=C1C3(C)C)[C@]1(OC(C)=O)CO[C@@H]1C[C@@H]2O` [Paclitaxel]: 0.487.

The values are drawn from the supplement of paper PMC10398353.
